No constants are given. Whether binding was seen depends on the method and setting. Some binding calls cover weakened binding; strength is not graded here.
target: iC3 (C3 containing a broken thioester bond analogous in reactivity and function to C3b) (UniProt P01024); assay: iC3-Sepharose, ELISA of eluate

Sequences of proteins named here, by UniProt entry; tags and fusion partners are left off. A change or cut given only in a name is not applied to a line headed by its entry. Residues count along the entry.
UniProt P01024, residues 23-1663: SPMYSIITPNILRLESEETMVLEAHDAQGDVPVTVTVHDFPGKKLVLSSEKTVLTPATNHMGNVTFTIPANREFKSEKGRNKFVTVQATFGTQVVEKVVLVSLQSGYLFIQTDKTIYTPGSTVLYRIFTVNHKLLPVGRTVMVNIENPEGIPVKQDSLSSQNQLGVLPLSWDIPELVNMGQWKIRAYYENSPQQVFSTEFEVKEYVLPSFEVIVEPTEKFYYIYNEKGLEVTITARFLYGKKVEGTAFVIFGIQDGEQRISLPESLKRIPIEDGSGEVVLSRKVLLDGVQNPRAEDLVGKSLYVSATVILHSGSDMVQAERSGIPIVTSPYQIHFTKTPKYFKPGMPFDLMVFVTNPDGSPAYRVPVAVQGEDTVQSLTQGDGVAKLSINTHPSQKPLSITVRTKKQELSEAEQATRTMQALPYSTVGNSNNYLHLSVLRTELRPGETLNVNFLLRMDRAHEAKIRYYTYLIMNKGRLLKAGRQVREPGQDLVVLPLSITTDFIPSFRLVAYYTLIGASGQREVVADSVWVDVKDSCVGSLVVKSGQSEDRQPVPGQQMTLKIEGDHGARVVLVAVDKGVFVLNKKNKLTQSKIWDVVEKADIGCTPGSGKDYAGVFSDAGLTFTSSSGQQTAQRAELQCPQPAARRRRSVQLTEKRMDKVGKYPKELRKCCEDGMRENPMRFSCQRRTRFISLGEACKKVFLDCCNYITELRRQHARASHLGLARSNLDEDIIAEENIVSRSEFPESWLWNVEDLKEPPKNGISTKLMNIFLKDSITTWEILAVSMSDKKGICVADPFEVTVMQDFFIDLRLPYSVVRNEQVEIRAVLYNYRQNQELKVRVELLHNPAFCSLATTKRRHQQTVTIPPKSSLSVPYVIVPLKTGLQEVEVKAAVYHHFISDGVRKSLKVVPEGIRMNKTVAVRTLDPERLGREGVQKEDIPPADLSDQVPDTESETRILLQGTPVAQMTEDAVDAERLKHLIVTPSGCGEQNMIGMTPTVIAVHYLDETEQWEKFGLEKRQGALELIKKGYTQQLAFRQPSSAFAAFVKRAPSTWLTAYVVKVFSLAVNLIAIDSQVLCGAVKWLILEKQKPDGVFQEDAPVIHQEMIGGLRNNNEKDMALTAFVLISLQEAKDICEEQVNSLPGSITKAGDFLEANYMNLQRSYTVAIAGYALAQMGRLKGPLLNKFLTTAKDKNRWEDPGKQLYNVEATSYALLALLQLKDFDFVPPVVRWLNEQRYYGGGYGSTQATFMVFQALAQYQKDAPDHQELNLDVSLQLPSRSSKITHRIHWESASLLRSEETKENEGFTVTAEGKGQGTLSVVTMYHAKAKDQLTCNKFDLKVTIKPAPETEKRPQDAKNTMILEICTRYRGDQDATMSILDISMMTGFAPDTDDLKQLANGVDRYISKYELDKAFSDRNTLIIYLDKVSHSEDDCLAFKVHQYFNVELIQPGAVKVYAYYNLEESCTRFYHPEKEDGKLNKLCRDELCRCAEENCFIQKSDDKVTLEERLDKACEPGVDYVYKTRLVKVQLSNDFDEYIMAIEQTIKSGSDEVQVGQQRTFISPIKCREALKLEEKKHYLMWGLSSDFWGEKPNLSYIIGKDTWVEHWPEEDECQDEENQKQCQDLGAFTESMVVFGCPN
UniProt P17927: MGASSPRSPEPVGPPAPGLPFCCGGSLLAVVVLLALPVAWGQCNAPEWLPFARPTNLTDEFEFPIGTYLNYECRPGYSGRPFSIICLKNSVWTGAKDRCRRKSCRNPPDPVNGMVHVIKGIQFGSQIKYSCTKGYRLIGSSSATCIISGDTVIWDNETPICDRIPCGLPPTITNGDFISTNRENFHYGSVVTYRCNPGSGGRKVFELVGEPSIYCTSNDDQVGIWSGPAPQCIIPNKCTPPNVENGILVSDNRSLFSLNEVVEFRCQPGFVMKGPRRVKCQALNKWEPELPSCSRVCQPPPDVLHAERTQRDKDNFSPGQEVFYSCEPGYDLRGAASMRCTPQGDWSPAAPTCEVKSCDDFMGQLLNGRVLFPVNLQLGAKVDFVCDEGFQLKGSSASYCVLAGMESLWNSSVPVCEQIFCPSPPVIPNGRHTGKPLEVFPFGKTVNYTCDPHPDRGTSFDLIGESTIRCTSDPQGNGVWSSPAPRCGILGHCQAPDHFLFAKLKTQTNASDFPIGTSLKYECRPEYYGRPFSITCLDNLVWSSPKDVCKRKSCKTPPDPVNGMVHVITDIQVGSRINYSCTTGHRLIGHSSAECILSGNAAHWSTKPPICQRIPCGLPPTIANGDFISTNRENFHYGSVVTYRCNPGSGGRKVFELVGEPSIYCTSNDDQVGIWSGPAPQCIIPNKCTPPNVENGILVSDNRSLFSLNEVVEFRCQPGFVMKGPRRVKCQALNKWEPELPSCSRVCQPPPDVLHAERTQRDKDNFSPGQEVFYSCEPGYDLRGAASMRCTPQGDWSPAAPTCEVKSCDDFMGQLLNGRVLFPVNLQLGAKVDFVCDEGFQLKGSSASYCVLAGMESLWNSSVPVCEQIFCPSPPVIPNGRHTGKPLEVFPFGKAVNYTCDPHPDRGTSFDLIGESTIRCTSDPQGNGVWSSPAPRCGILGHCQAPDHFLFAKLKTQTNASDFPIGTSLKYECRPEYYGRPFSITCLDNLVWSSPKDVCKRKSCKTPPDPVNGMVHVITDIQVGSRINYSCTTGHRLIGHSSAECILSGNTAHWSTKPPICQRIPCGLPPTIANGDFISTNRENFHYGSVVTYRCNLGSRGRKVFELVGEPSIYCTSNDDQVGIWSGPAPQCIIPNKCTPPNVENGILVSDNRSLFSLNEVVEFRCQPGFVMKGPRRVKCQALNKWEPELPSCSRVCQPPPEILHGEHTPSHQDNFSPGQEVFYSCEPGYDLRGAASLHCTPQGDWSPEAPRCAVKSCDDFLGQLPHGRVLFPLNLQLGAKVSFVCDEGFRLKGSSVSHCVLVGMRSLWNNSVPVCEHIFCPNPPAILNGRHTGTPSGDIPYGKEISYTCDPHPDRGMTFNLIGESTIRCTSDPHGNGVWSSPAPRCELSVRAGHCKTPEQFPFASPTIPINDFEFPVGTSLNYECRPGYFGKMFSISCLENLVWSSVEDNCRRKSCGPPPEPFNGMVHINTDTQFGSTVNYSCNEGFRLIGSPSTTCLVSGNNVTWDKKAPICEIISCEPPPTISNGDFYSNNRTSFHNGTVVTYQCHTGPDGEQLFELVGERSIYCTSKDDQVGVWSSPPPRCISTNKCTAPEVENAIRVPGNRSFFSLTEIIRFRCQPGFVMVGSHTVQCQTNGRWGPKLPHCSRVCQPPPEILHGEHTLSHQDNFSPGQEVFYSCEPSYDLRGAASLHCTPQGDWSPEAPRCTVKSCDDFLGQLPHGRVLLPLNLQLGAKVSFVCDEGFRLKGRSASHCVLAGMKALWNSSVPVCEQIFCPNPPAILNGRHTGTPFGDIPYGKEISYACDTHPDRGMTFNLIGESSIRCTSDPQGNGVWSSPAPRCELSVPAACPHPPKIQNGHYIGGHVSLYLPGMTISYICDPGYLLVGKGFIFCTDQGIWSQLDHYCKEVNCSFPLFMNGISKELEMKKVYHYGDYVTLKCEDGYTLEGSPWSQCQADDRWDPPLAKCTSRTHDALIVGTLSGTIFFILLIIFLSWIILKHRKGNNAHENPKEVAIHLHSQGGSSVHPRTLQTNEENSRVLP

Substance	binding
CR1-4 (8, 9) (from UniProt P17927 492-1034) (receptor)	binds
CR1-4 (8, 9) mutant 1ar, 5r, 8br (from UniProt P17927 492-1034) (receptor)	binds
CR1-4 (8, 9) mutant 1br (from UniProt P17927 492-1034) (receptor)	binds
CR1-4 (8, 9) mutant 2r (from UniProt P17927 492-1034) (receptor)	binds
CR1-4 (8, 9) mutant 3r (from UniProt P17927 492-1034) (receptor)	binds
CR1-4 (8, 9) mutant 6r (from UniProt P17927 492-1034) (receptor)	binds
CR1-4 (8, 9) mutant 7r (from UniProt P17927 492-1034) (receptor)	binds
CR1-4 (8, 9) mutant 8r (from UniProt P17927 492-1034) (receptor)	binds
CR1-4 (8, 9) mutant 9r (from UniProt P17927 492-1034) (receptor)	binds
CR1-4 (8, 9) mutant 10, 11r (from UniProt P17927 492-1034) (receptor)	binds
CR1-4 (8, 9) mutant 10ar (from UniProt P17927 492-1034) (receptor)	binds
CR1-4 (8, 9) mutant 10br (from UniProt P17927 492-1034) (receptor)	binds
CR1-4 (8, 9) mutant 10cr (from UniProt P17927 492-1034) (receptor)	binds
CR1-4 (8, 9) mutant 10dr (from UniProt P17927 492-1034) (receptor)	binds
CR1-4 (8, 9) mutant 10r (from UniProt P17927 492-1034) (receptor)	binds
CR1-4 (8, 9) mutant 11ar (from UniProt P17927 492-1034) (receptor)	binds
CR1-4 (8, 9) mutant 11br (from UniProt P17927 492-1034) (receptor)	binds
CR1-4 (8, 9) mutant 11cr (from UniProt P17927 492-1034) (receptor)	binds
CR1-4 (8, 9) mutant 11dr (from UniProt P17927 492-1034) (receptor)	binds

Substance	binding
CR1-4 (8, 9) mutant 11er (from UniProt P17927 492-1034) (receptor)	binds
CR1-4 (8, 9) mutant 11r (from UniProt P17927 492-1034) (receptor)	binds
CR1-4 (8, 9) mutant 12r (from UniProt P17927 495-1034) (receptor)	binds
CR1-4 (8, 9) mutant 13r (from UniProt P17927 45-1034) (receptor)	binds
CR1-4 (8, 9) mutant 14r (from UniProt P17927 51-1034) (receptor)	binds
CR1-4 (8, 9) mutant 15r (from UniProt P17927 492-1034) (receptor)	binds
CR1-4 (8, 9) stop 7 (from UniProt P17927 492-940) (receptor)	binds
CR1-4 Stop 7 (from UniProt P17927 42-940) (receptor)	binds
CR1-4 mutant 1 (from UniProt P17927 42-1034) (receptor)	binds
CR1-4 mutant 1a (from UniProt P17927 42-1034) (receptor)	binds
CR1-4 mutant 1b (from UniProt P17927 42-1034) (receptor)	binds
CR1-4 mutant 1b, 6b (from UniProt P17927 42-1034) (receptor)	binds
CR1-4 mutant 2 (from UniProt P17927 42-1034) (receptor)	binds
CR1-4 mutant 3 (from UniProt P17927 42-1034) (receptor)	binds
CR1-4 mutant 4 (from UniProt P17927 42-1034) (receptor)	binds
CR1-4 mutant 5 (from UniProt P17927 42-1034) (receptor)	binds
CR1-4 mutant 6 (from UniProt P17927 42-1034) (receptor)	binds
CR1-4 mutant 6b (from UniProt P17927 42-1034) (receptor)	binds
CR1-4 mutant 7 (from UniProt P17927 42-1034) (receptor)	binds

Substance	binding
CR1-4 mutant 8 (from UniProt P17927 42-1034) (receptor)	binds
CR1-4 mutant 8a (from UniProt P17927 42-1034) (receptor)	binds
CR1-4 mutant 8b (from UniProt P17927 42-1034) (receptor)	binds
CR1-4 mutant 9 (from UniProt P17927 42-1034) (receptor)	binds
CR1-4 mutant 10 (from UniProt P17927 42-1034) (receptor)	binds
CR1-4 mutant 10, 11 (from UniProt P17927 42-1034) (receptor)	binds
CR1-4 mutant 11 (from UniProt P17927 42-1034) (receptor)	binds
CR1-4 mutant 11a (from UniProt P17927 42-1034) (receptor)	binds
CR1-4 mutant 11b (from UniProt P17927 42-1034) (receptor)	binds
CR1-4 mutant 11c (from UniProt P17927 42-1034) (receptor)	binds
CR1-4 mutant 11c, d (from UniProt P17927 42-1034) (receptor)	binds
CR1-4 mutant 11d (from UniProt P17927 42-1034) (receptor)	binds
CR1-4 mutant 11e (from UniProt P17927 42-1034) (receptor)	binds
CR1-4 mutant 11ΔSCR1 (from UniProt P17927 102-1034) (receptor)	binds
CR1-4 mutant 12 (from UniProt P17927 45-1034) (receptor)	binds
CR1-4 mutant 13 (from UniProt P17927 42-1034) (receptor)	binds
CR1-4 mutant 14 (from UniProt P17927 42-1034) (receptor)	binds
CR1-4 mutant 27, 29: Y . . . N→ S . . . K (from UniProt P17927 42-1034) (receptor)	binds

Reference: US20080119400A1
